# Assay results published in PubChem BioAssay AID2685 (National Center for Advancing Translational Sciences (NCATS), 2010).
# This is one part of the list. Shown are side measurements of this screen, not its main read-out; they come without a call. The list favours compounds with an active or inconclusive main result. The note in brackets gives the kind of curve behind each potency; many fits are weak.
# Test: qHTS Assay for Lipid Storage Modulators in Drosophila S3 Cells;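 as to cell number change: cells counted by Cell Tracker Red CMTPX staining in the red channel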
# Settings: BODIPY lipid droplet fluorescence, 18-24 h; for cell number change: measured here: cell count max response, cells fed with added oleic acid
# Procedure, shortened: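 Drosophila S3 cells loaded with oleic acid (400 uM, as added) and compounds at several concentrations; lipid droplets imaged by 488-nm laser-scanning cytometry, 500–530 nm intensity and object ratio to cell channel. Percent activity normalized to 20 uM Triacsin C.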
# [1] = measured here: cell number channel AC50, cells fed with added oleic acid
# [2] = measured here: lipid fluorescence (Fed channel) AC50, cells fed with added oleic acid
SMILES,cell number change,AC50 [1],AC50 [2]
Nc1c(C(=O)NCCN2CCOCC2)c2nc3ccccc3nc2n1CCc1ccccc1F,-35.2%,"32.6 µM [falling, single point]",
COCCN(C(=O)CCC(=O)Nc1cc(C)on1)C(C(=O)NC1CCCC1)c1ccccc1F (configuration not stated),4.76%,,
COc1ccccc1NC(=O)CSc1nc2ccccc2n1C(C)=O,-6.45%,,
N#C/C(=C\c1ccc(F)c(F)c1)C(=O)NC1CCCCC1,-9.64%,,"7.31 µM [falling, partial curve]"
CCn1c(CNc2ccccc2Cl)nnc1SCCN1CCCCC1,-8.23%,,"29.1 µM [rising, single point]"
COC(=O)C1=C(C)N(Cc2ccccc2)C(=NCCN2CCOCC2)N[C@H]1CCc1ccccc1,-14.3%,,"0.92 µM [falling, single point]"
COc1cc(C2N(c3ccccc3)CCN2c2ccccc2)cc(OC)c1OC,7.81%,,
CN1CCCN(S(=O)(=O)c2cccc(Cl)c2Cl)CC1,-32.4%,"0.291 µM [falling, full curve, poor fit]",
COc1ccc2c(COC(=O)CC3Sc4ccccc4NC3=O)cc(=O)oc2c1 (configuration not stated),16.2%,,
COc1ccc(NC(=O)CN(C)C(=O)c2cc(-c3ccc(C)o3)nc3ccccc23)cc1,,,"3.26 µM [rising, single point]"
CN(C(=O)CSc1ccccc1C(=O)O)C1CCCCC1,46.8%,"29.1 µM [rising, single point]",
CC(C)(C)/C(COc1ccccc1[N+](=O)[O-])=N/O,4.4%,,"0.112 µM [falling, full curve, poor fit]"
COc1ccc(CN2CCN(C3CCSCC3)CC2CCO)c(C)c1C (configuration not stated),7.2%,,"11.6 µM [rising, single point]"
COc1ccc(/C(O)=C2/C(=O)C(=O)N(CCCN3CCOCC3)C2c2ccc(N(C)C)cc2)cc1 (configuration not stated),1.09%,,"29.1 µM [rising, single point]"
CC(C)c1nnc(NC(=O)c2ccc(S(=O)(=O)N3CCOCC3)cc2)s1,,"3.26 µM [rising, single point]","4.61 µM [rising, single point]"
Cc1ccc2c(NC(=O)c3ccco3)cccc2n1,-19.1%,,
Cc1cccc(NS(=O)(=O)c2cc3c(cc2C)n(C)c(=O)c(=O)n3C)c1,-15.6%,,"10.3 µM [falling, partial curve]"
COc1ccc(CNC(=O)c2ccc(Cl)c(S(=O)(=O)N3CCOCC3)c2)cc1OC,,,"16.4 µM [falling, single point]"
N#Cc1ccccc1OCC(=O)N1N=C(c2cccs2)CC1c1ccco1 (configuration not stated),-4.29%,,"0.461 µM [rising, full curve, poor fit]"
CCOC(=O)C1=C(N)Oc2cc(O)ccc2C1c1ccc(F)cc1F (configuration not stated),-51.6%,"20.6 µM [falling, single point]",
COc1ccc(S(=O)(=O)N2CCCOC2CNC(=O)C(=O)NCCc2ccco2)cc1OC (configuration not stated),17%,,"29.1 µM [rising, single point]"

SMILES,cell number change,AC50 [1],AC50 [2]
NS(=O)(=O)c1ccc(NC(=O)c2ccc(-c3ccccc3)cc2)cc1,25%,,"5.8 µM [falling, single point]"
COc1ccc(-n2ncc3c2CC(C)(C)CC3NC(=O)CN2CCOC2=O)cc1 (configuration not stated),5.67%,,
O=C(COC(=O)c1ccc(S(=O)(=O)N2CCCC2)cc1)Nc1cccc(Br)c1,-1.4%,,"0.651 µM [falling, full curve]"
CC1CCN(C(=O)CSc2nnc(CNC(=O)c3ccco3)o2)CC1,66.1%,"20.6 µM [rising, single point]","0.58 µM [falling, single point]"
CCC(C(=O)OCC(=O)N1CCN(S(=O)(=O)c2ccc(C)cc2C)CC1)c1ccccc1 (configuration not stated),-23.3%,,"8.2 µM [rising, partial curve, poor fit]"
COc1ccccc1C(=O)NC(=O)COC(=O)Cc1ccccc1[N+](=O)[O-],,,"6.51 µM [rising, single point]"
CCc1ccccc1-n1c(SCC(=O)N2CCCC2)nnc1-c1ccccn1,,"6.51 µM [falling, single point]","0.731 µM [rising, single point]"
CNc1nc(Sc2ccc(C)cc2)cc(C(F)(F)F)n1,18.6%,,
O=C(NCC(=O)N(c1cccnc1)C(C(=O)NC1CCCC1)c1ccco1)c1cccs1 (configuration not stated),-26.4%,,"32.6 µM [falling, partial curve, poor fit]"
CC(=O)c1ccccc1OCCCN1CCCCC1,-10.7%,,"6.51 µM [falling, single point]"
CC1CN(CCCOc2ccccc2-c2ccccc2)CC(C)O1 (configuration not stated),-0.184%,,
O=C(NCCS(=O)(=O)N1CCc2ccccc2C1)c1ccccc1,11.9%,,
Cc1ccc(CN2CCN(/N=C/c3ccc(C)s3)CC2)cc1,-6.51%,,"0.00517 µM [rising, full curve, poor fit]"
NC(=O)NC(=O)CSc1ccccc1,4.52%,,
COc1ccc(NC(=O)c2ccc(S(=O)(=O)N3CCOCC3)o2)cc1,21.1%,,"2.31 µM [rising, full curve, poor fit]"
CC1=C(C(=O)N2CCOCC2)C(c2ccc(O)cc2)NC(=S)N1 (configuration not stated),5.92%,,"18.4 µM [falling, single point]"
CCOC(=O)c1c(C)[nH]c(C(=O)COC(=O)c2ccc(F)c(S(=O)(=O)N3CCOCC3)c2)c1C,,"0.164 µM [rising, full curve, poor fit]",
CCOC(=O)C1C(=O)C=C(/C=C/c2ccc(N(C)C)cc2)CC1c1ccccc1 (configuration not stated),-94.8%,"4.61 µM [falling, full curve]","4.11 µM [falling, full curve]"
CCOc1cc(/C=C2\SC(=S)N(C(C(=O)O)c3ccccc3)C2=O)ccc1O (configuration not stated),-91.9%,"29.1 µM [falling, partial curve, poor fit]","25.9 µM [falling, partial curve]"
CCCNC(=S)N1CCN(C)CC1,12.3%,"0.461 µM [falling, single point]","1.16 µM [falling, single point]"

# Rewritten bar-delimited: two of the compounds above
SMILES | cell number change | AC50 [1] | AC50 [2]
CC1CN(CCCOc2ccccc2-c2ccccc2)CC(C)O1 (configuration not stated) | -0.184% |  | 
O=C(NCCS(=O)(=O)N1CCc2ccccc2C1)c1ccccc1 | 11.9% |  | 
